# According to the supplement of paper PMC10849652:
# Protein sequences, listed by entry. Tags and fused reporters are not part of them. Lines headed by an entry give the natural chain unless they say otherwise; changes in a name come on top.
# UniProt Q13952: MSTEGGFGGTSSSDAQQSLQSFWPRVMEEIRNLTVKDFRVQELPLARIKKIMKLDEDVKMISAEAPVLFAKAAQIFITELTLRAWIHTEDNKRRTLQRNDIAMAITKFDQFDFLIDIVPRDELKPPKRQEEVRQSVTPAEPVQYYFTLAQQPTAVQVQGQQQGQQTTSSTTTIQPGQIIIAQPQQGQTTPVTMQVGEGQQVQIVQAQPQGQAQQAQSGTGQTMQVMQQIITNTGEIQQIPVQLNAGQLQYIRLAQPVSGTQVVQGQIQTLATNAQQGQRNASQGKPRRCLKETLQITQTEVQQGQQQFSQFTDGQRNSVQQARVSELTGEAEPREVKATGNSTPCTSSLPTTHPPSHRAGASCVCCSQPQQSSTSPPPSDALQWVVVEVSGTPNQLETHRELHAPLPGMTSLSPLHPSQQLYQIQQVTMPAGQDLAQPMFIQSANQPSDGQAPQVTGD
# UniProt Q9NXR1: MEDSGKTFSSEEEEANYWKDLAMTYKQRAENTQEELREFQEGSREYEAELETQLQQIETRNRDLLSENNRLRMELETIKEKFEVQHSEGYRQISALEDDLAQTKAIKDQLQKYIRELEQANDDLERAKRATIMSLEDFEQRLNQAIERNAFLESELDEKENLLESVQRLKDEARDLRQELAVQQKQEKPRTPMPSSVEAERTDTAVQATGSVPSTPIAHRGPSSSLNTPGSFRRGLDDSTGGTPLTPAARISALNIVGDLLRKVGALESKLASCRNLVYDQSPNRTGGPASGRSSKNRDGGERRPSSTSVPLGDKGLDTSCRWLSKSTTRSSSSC
# UniProt Q96PU5: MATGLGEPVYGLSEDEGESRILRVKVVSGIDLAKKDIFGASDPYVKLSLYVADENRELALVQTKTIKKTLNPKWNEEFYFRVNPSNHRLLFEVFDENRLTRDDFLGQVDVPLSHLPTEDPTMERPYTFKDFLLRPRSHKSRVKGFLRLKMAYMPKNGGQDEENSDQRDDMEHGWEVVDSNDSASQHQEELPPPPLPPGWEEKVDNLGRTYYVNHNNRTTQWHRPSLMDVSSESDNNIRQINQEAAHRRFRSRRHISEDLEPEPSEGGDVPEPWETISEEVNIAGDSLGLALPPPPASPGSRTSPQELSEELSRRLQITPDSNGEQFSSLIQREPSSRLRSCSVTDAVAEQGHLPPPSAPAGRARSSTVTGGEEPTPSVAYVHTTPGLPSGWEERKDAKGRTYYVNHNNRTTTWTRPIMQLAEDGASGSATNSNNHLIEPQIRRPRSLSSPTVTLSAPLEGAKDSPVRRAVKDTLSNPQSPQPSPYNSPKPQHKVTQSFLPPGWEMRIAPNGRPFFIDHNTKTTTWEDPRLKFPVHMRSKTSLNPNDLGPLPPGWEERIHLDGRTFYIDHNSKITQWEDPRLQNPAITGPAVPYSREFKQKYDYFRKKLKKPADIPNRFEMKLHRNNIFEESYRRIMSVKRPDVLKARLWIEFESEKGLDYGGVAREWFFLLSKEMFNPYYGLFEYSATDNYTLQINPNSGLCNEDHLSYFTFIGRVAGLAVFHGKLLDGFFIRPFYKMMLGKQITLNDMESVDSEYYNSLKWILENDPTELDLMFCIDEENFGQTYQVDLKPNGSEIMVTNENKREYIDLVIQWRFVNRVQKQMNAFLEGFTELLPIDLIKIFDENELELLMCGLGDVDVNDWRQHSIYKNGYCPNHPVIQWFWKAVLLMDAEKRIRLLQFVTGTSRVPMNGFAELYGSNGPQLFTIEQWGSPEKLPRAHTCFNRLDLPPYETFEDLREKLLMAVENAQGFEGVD
# UniProt P56181: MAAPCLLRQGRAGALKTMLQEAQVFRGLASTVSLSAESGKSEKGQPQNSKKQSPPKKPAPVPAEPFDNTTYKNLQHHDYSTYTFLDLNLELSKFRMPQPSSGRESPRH
# UniProt Q9GZT8: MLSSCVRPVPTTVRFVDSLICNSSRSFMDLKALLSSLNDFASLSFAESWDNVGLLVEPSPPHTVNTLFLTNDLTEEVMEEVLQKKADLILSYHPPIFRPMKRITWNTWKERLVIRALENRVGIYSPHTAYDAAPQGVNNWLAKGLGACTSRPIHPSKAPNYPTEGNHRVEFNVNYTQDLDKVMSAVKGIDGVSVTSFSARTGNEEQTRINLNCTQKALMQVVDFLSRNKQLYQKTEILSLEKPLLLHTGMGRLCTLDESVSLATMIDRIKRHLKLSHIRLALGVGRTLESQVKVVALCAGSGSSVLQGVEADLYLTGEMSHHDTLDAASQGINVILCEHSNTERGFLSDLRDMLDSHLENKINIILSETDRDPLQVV
# UniProt Q5JS37: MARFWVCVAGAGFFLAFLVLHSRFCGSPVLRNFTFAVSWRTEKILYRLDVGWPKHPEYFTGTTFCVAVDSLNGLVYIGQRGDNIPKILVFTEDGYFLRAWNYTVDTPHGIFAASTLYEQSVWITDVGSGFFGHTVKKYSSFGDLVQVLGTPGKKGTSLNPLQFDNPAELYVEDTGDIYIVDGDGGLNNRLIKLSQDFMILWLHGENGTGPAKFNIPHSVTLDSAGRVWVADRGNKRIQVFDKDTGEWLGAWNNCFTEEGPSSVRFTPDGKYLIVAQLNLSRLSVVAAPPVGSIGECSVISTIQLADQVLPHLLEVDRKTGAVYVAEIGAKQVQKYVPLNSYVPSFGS
# UniProt O75323: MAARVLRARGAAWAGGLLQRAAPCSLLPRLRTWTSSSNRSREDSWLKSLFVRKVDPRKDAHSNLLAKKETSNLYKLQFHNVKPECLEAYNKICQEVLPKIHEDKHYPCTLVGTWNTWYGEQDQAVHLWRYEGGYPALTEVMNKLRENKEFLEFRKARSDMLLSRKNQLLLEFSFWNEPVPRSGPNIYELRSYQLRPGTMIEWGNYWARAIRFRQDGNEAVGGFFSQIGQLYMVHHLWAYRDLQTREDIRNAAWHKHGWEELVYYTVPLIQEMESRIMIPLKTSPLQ
# UniProt Q86UT6, whole entry, looked up: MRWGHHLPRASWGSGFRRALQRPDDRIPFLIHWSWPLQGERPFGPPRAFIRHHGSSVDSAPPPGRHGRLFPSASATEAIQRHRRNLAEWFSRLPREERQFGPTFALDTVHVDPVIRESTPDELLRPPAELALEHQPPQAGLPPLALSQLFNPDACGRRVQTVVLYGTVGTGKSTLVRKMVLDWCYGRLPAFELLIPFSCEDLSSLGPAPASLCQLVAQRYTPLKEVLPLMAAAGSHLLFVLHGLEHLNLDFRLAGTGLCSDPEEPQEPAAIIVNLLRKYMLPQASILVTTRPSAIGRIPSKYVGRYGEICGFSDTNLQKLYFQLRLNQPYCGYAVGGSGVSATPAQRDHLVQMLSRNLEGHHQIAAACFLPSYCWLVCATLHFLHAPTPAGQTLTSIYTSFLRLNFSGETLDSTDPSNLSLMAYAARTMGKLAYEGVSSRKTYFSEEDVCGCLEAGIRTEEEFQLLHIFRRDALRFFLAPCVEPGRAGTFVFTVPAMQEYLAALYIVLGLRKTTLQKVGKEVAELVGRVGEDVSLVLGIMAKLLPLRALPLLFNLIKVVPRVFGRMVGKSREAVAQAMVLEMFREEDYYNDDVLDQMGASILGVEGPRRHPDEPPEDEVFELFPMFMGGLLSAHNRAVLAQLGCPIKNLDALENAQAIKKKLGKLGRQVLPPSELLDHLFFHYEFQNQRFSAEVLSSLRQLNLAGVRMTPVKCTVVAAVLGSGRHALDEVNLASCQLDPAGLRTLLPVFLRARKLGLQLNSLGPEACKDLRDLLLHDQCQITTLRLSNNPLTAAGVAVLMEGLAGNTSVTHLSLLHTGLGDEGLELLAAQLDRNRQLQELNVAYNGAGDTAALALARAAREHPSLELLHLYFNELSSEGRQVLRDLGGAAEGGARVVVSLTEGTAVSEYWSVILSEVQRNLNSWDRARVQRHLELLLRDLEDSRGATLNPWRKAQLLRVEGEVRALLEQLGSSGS
# UniProt Q14494: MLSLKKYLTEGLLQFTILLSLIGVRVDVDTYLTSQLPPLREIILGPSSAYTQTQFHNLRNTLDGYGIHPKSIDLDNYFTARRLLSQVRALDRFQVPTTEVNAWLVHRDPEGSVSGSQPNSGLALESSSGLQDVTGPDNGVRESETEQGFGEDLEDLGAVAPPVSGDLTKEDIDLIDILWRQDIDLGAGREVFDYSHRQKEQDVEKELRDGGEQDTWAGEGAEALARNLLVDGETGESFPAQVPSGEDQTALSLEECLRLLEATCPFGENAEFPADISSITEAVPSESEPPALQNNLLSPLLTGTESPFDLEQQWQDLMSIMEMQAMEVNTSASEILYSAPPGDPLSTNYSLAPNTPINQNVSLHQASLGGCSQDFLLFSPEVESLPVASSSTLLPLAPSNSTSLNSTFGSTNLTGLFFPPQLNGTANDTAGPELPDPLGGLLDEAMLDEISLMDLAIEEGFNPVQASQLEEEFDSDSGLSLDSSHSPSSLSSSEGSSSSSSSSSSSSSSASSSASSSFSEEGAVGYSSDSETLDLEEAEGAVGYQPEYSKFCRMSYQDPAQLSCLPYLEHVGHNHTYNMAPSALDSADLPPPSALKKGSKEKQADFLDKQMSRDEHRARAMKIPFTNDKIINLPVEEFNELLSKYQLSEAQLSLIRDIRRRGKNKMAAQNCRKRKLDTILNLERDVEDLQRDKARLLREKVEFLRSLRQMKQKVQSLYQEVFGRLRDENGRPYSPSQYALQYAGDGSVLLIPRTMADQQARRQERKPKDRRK
# UniProt Q7RTP0: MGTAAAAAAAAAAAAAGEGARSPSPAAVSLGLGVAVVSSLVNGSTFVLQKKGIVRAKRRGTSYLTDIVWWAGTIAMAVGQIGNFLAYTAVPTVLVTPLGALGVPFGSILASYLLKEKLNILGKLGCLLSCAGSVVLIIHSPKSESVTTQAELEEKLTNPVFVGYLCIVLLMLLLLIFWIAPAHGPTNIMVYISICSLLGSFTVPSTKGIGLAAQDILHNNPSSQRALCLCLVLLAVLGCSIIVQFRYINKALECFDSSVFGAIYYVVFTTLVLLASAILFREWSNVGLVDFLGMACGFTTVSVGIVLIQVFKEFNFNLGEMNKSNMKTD
# UniProt Q6P3R8: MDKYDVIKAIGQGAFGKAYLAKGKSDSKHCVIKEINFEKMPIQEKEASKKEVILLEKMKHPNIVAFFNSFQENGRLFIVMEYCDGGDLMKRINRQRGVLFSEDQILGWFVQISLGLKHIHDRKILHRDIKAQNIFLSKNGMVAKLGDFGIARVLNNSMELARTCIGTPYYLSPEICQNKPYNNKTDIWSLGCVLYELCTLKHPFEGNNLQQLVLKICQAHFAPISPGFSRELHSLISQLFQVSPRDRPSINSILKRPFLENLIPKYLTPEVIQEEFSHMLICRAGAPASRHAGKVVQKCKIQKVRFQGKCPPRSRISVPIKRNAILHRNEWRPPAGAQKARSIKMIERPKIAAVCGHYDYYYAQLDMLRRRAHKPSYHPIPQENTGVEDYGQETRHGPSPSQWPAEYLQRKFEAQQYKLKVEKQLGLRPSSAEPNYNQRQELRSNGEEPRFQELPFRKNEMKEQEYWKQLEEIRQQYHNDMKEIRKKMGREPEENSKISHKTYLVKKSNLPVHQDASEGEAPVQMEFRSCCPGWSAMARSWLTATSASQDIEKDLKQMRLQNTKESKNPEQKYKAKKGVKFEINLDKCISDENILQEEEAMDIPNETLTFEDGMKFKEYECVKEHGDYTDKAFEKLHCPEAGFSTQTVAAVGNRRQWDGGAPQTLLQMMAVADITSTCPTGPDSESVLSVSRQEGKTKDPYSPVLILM
# UniProt Q92692, whole entry, looked up: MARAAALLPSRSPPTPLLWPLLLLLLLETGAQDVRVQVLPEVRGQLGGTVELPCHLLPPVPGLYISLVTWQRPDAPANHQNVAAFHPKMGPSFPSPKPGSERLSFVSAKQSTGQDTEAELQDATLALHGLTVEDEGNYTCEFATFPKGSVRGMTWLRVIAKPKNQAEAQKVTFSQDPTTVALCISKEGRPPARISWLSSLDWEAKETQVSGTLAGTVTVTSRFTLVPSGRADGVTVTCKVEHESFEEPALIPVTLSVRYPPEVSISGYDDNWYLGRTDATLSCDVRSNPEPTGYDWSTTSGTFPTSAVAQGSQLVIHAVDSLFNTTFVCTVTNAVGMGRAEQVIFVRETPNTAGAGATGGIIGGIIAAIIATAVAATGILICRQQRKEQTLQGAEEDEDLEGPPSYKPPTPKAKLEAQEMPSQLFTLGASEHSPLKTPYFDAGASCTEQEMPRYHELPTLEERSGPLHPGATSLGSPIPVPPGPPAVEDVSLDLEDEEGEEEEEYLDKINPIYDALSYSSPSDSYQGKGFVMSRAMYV
# UniProt Q9NV92: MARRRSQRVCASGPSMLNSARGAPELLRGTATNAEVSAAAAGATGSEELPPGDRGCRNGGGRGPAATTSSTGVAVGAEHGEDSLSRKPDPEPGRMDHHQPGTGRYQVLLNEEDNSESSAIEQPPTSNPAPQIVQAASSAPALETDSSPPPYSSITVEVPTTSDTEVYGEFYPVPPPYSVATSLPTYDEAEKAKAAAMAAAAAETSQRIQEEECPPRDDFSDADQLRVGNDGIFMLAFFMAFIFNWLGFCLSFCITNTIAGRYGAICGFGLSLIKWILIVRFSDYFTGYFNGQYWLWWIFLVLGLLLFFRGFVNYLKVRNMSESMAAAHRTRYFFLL
# This is one part of the list.
# Compound: Cc1sc2c(c1C)C(c1ccc(Cl)cc1)=N[C@@H](CC(=O)OC(C)(C)C)c1nnc(C)n1-2
# Assay: log2 fold change, soluble protein after heating vs DMSO (PISA); higher = thermal stabilisation; K562 lysate, 10 uM; active = over 0.2 and 3.5 SD of the protein, either way, in both replicates (recomputed)
# Outline: (§1)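 K562 pellets were dounce-homogenised in PBS pH 7.4 with 1 mM MgCl2, and the crude extract at 1 mg/mL protein was treated with 10 μM compound for 30 min. Aliquots were heated for 3 min across 48°C-58°C, pooled, and brought to 0.5% NP-40 at 4°C; soluble protein was the supernatant after 21,000xg for 90 min. Soluble protein was quantified by TMTpro 16plex LC-MS/MS with channel sums equalised, and reported as log2 fold change in thermal stability against DMSO controls, with values from duplicates.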
row,Target,log2 fold change
1,NFIA isoform 4 (UniProt Q12857),inactive: -0.008
2,NDUFAF6 (UniProt Q330K2),inactive: 0.079
3,NFYC isoform 3 (UniProt Q13952),inactive: -0.022
4,NDRG2 isoform 6 (UniProt Q9UN36),inactive: 0.017
5,NDE1 isoform 1 (UniProt Q9NXR1),inactive: -0.021
6,NEU4 (UniProt C9JEA3),inactive: -0.068
7,NEDD4L (UniProt Q96PU5),inactive: 0.049
8,NEPRO (UniProt Q6NW34),inactive: 0.057
9,NDUFV3 isoform 2 (UniProt P56181),inactive: -0.056

# Compound: c1ccc([C@@H]2C[C@H]2NC2CCNCC2)cc1
# Assay: as above
# Outline: as §1
row,Target,log2 fold change
1,NKIRAS1 (UniProt Q9NYS0),inactive: -0.103
2,NIF3L1 (UniProt Q9GZT8),inactive: -0.044
3,NENF (UniProt Q9UMX5),inactive: 0.037
4,NDUFS1 isoform 2 (UniProt P28331),inactive: 0.035
5,NDUFAB1 (UniProt O14561),inactive: -0.033
6,NIPSNAP3B (UniProt Q9BS92),inactive: 0.046
7,NHLRC3 (UniProt Q5JS37),inactive: -0.131
8,NIPSNAP2 (UniProt O75323),inactive: 0.048
9,NLRX1 (UniProt Q86UT6),inactive: 0.047
10,NEO1 (UniProt Q92859),inactive: 0.117
11,NFE2L1 (UniProt Q14494),inactive: -0.031
12,NLK (UniProt Q9UBE8),inactive: -0.28
13,NIPA1 (UniProt Q7RTP0),inactive: -0.002
14,NDUFA7 (UniProt M0R0N0),inactive: -0.703
15,NEK5 (UniProt Q6P3R8),inactive: 0.082
16,NKRF isoform 2 (UniProt O15226),inactive: 0.045
17,NECTIN2 isoform 2 (UniProt Q92692),inactive: -0.096

row,Target,log2 fold change
1,NEURL4 (UniProt Q96JN8),inactive: 0.043
2,NDUFB10 (UniProt O96000),inactive: 0.047
3,NDUFA3 (UniProt O95167),inactive: -0.041
4,NDUFA4 (UniProt O00483),inactive: 0.287
5,NFIA isoform 4 (UniProt Q12857),inactive: -0.041
6,NDUFAF6 (UniProt Q330K2),inactive: 0.028
7,NKX2-2 (UniProt O95096),inactive: -0.297
8,NDFIP2 (UniProt Q9NV92),inactive: -0.218
9,NDE1 isoform 1 (UniProt Q9NXR1),inactive: -0.023
10,NEU4 (UniProt C9JEA3),inactive: 0.061
11,NEDD4L (UniProt Q96PU5),inactive: 0.041
12,NEPRO (UniProt Q6NW34),inactive: -0.068
13,NDUFV3 isoform 2 (UniProt P56181),inactive: -0.045
14,NIN isoform 7 (UniProt Q8N4C6),inactive: 0.029
15,NFRKB isoform 2 (UniProt Q6P4R8),inactive: -0.022
16,NEK8 (UniProt Q86SG6),inactive: 0.047
